Results are given in words; binding and its absence hold for the method and conditions named. Some entries that bind do so weakly or less than the wild type. Sequences can lack the tags named with a protein.

Chains of the proteins cited; added tags and fusions are not shown. Residues count along the entry.
UniProt P02701, residues 25-152: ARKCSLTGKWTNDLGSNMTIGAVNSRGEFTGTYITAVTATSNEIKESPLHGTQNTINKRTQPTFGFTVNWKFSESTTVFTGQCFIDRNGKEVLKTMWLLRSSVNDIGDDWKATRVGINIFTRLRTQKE

This note sets out measurements from patent publication US20060088908A1.

Test [1] has as its target Avidin (Fluka) (UniProt P02701). In words: ELISA, avidin-coated wells without peptide.
The target is the same in test [2]. In words: ELISA control without peptide: avidin-coated wells only, mutein titrated, anti-strepII-antibody-HRP detection, A450. Background: ELISA stands for enzyme-linked immunosorbent assay.

B1: hNGAL mutein RFY-E with C-terminal Strep-Tag II (phNGAL15 derivative, purified) (designed binder, not shown: small tags and cut ends)
chain: QDSTSDLIPAPPLSKVPLQQNFQDNQFQGKWYLVGLAGNGITRVDTLPSRMYATIYELKEDKSYNVTSVPFMGKKCKYKIRTFVPGSQPGEFTLGNIKSYMSNTSFLVRVVSTNYNQHAMVFFKQVHKNPESFKITIYGRTKELPSELKENFIRFSKSLGLPENHIVFPVPIDQCIDG
Take B1: the binding entry in the test with Avidin (Fluka) [1] and with Avidin (Fluka) [2] was “binds” each time.

B2: hNGAL mutein RFY-C with C-terminal Strep-Tag II (phNGAL15 derivative, purified) (designed binder, not shown: small tags and cut ends)
chain: QDSTSDLIPAPPLSKVPLQQNFQDNQFQGKWYLVGLAGNGIHRLDNVPPNMYATIYELKEDKSYNVTSVDFLMKKCPYFIRTFVPGSQPGEFTLGNIKSYPFLTSFLVRVVSTNYNQHAMVFFKNVPRNYEEFKITIYGRTKELPSELKENFIRFSKSLGLPENHIVFPVPIDQCIDG
For the molecule B2, the binding result in the test with Avidin (Fluka) [1] and with Avidin (Fluka) [2] was “binds” throughout.
